Out of some 320,000 compounds screened, about 620 (0.19%) were called active. The inconclusive results got no clear call from the source; some entries with a clear call stand among them for comparison. Rule as the data show it: active = activation above about 80%; inconclusive = between about 30% and that limit; inactive = weaker than that.
molecular target: Transient receptor potential cation channel subfamily V member 1 (Homo sapiens) (UniProt Q8NER1); assay: HTS Assay for Compounds that Act as Agonists of the Vanilloid Receptor 1; details: TRPV1-expressing cells, Fluo-8 calcium influx, agonist mode; at 8.33 µM, stronger effect = higher value; also: 0% is about no effect
Summary of the method: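 Cells expressing TRPV1 were dye-loaded with Fluo-8 and read kinetically: 10 s baseline, 3 min after compound (agonist portion), then 2 min after EC20 capsaicin (allosteric enhancer portion). Calcium-bound dye fluorescence at 480/520 nm.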

Protein sequences, listed by entry. Tags and fused reporters are not part of them.
UniProt Q8NER1, whole entry, looked up: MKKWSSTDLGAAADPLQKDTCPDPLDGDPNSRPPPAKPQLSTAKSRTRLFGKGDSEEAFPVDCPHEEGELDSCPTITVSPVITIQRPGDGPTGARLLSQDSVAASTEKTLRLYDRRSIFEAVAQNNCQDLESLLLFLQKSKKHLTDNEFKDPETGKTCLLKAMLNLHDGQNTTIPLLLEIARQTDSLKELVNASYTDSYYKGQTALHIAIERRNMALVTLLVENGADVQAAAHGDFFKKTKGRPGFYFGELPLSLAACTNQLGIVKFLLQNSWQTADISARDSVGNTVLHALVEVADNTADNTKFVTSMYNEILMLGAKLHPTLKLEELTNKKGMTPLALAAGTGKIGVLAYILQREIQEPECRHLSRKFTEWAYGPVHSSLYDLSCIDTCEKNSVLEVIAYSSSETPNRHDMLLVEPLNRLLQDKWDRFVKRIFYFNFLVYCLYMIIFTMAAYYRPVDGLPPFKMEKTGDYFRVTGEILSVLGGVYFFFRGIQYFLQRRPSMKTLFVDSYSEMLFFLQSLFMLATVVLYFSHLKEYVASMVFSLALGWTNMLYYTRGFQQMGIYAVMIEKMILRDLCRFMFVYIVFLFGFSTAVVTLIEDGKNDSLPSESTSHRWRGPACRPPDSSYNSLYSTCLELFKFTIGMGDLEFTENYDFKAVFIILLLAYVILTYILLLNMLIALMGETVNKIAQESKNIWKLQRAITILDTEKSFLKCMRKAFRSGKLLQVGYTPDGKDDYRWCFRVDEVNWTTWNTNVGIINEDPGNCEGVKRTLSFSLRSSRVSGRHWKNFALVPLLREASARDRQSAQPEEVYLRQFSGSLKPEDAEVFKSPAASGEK

Which activation does the source give for `CCOC(=O)N1CCN(C(=O)CSc2ccc3nnc(-c4cccnc4)n3n2)CC1` here?
Its activation is inactive: -1.64%.

How did the activation turn out when `CN(C)c1ccc(/C=C2\SC(N3CCCCC3)=NC2=O)cc1` was run?
The activation was inconclusive: 39.3%.

Which activation does the source give for `Nc1c(C(=O)c2ccc(Cl)cc2)sc2nc3c(cc12)CCC3` here?
The activation was inconclusive: 37%.

With `COc1ccc(OCC(=O)N2CCN(c3cccc(Cl)c3)CC2)cc1` as the compound, how does the activation read?
Its activation is inactive: 19.3%.

With `Cc1ccc(C)c(S(=O)(=O)N2CCN(c3nc(CN4CCOCC4)nc4sc(C)c(C)c34)CC2)c1` as the compound, how does the activation read?
Its activation is inconclusive: 31.9%.

Which activation does the source give for `CCc1cccc(NC(=O)Cc2ccc(OC)c(OC)c2)c1` here?
The activation was inconclusive: 67%.

With `CC1=CC(C)C2(COC(=O)Nc3ccccc3)COC(C)C1C2C` (centres undefined) as the compound, how does the activation read?
The activation was inconclusive: 51.8%.

Which activation does the source give for `Cc1cccc(C)c1OCc1cc(C(=O)NC2CCC2)no1` here?
The activation was inconclusive: 46.9%.

Which activation does the source give for `CC1(C)CC(=O)C2=C(C1)N(Cc1ccccc1)C(=O)C2(NC(=O)C(C)(C)C)C(F)(F)F` (centres undefined) here?
Its activation is inactive: 5.21%.

Which activation does the source give for `CC(NCC1(N2CCOCC2)CCCCC1)C(=O)Nc1ccc(Cl)cc1Cl` (centres undefined) here?
The activation was inconclusive: 43.7%.

How did the activation turn out when `Cc1ccc(/C=C/C(=O)c2ccccc(=O)c2O)c(C)c1` was run?
The activation was inactive: 0.901%.

Which activation does the source give for `CCN(CC(=O)Nc1ccc2c(c1)CCC2)Cc1nc2ccccc2c(=O)[nH]1` here?
Its activation is inconclusive: 31.2%.

Which activation does the source give for `COc1cc(NC(=O)Nc2cccc([N+](=O)[O-])c2)cc(OC)c1` here?
Its activation is inconclusive: 70.5%.

Which activation does the source give for `CN(c1ccc(C(=O)Nc2cccnc2)cc1)S(=O)(=O)c1ccccc1` here?
Its activation is inconclusive: 43%.

`Cc1ccc(NC(=O)c2ccc(Br)o2)cc1S(=O)(=O)N(C)C` was tested. Which activation did it give?
Its activation is inconclusive: 31.5%.

How did the activation turn out when `CCCOc1ccc(/C(CC)=N/NC(=O)C2(C)CC2(Br)Br)cc1` (centres undefined) was run?
Its activation is inactive: 28%.

Which activation does the source give for `COc1cccc(NC(=O)c2ccc3snnc3c2)c1` here?
The activation was inconclusive: 57.9%.

With `Cc1cc(C(=O)OCCN2C(=O)c3ccccc3C2=O)c2ccccc2n1` as the compound, how does the activation read?
Its activation is inactive: 24.8%.

`CCCCCN1N=C(C)CC1=O` was tested. Which activation did it give?
Its activation is inconclusive: 51.9%.

`Cc1ccccc1-c1n[nH]c(=S)o1` was tested. Which activation did it give?
The activation was inactive: 2.28%.

`CCCCC(O)(c1ccc(F)cc1)C(CN1CCOCC1)c1ccc(Cl)cc1` (centres undefined) was tested. Which activation did it give?
Its activation is inconclusive: 39%.

With `COc1ccc(NC(=O)CCCn2nc(C)c3c(C)n(-c4ccccc4)nc3c2=O)cc1OC` as the compound, how does the activation read?
Its activation is inactive: -0.31%.

With `Cc1cccc(Cn2ccc(NC(=O)c3ccc4c(c3)OCO4)n2)c1` as the compound, how does the activation read?
The activation was inconclusive: 46.4%.

`O=C(COC(=O)C1(c2ccc(F)cc2)CCCC1)NCc1ccc2c(c1)OCO2` was tested. Which activation did it give?
Its activation is inconclusive: 36.6%.

For `O=C(CSCc1ccccc1)N1CCN(c2ccccc2)CC1`, which activation is on record?
The activation was inconclusive: 56.2%.

How did the activation turn out when `Cn1/c(=N/N=C/c2ccccn2)sc2ccccc21` was run?
Its activation is inconclusive: 33.2%.

With `O=C(Nc1cccc(Br)c1)c1ccc(OC2CSC2)cc1` as the compound, how does the activation read?
The activation was inconclusive: 75%.

Which activation does the source give for `COc1cccc(/C=N/NC(=O)c2ccncc2)c1OC(=O)c1ccc(Br)cc1` here?
Its activation is inconclusive: 65.6%.

Which activation does the source give for `COc1ccc(-c2ccc(C)cc2)cc1[C@H]1[C@@H]2C=CCC[C@@]2(C)C(=O)N1Cc1ccccc1` here?
The activation was inconclusive: 42.3%.

Which activation does the source give for `CCC(Oc1nc2ccccc2nc1-c1ccccc1NC(C)=O)C(=O)c1ccccc1` (centres undefined) here?
The activation was inconclusive: 30.2%.

For `CNc1nc(-c2ccccc2)[n+](-c2ccc(C)cc2)s1`, which activation is on record?
The activation was inactive: 8.81%.

With `CC(=O)c1cccc(NC(=O)c2nc(-c3ccccc3)oc2C)c1` as the compound, how does the activation read?
The activation was inconclusive: 60%.

`CNC(=O)c1ccc(-c2ccc(Cl)c(Cl)c2)s1` was tested. Which activation did it give?
The activation was inconclusive: 47.2%.

With `Cc1cc(O)c(CN2CCN(S(=O)(=O)c3cccs3)CC2)cc1C(C)C` as the compound, how does the activation read?
The activation was inactive: 12.6%.

With `CNC(=O)CSc1nc2ccccc2c(=O)n1C1CCCCC1` as the compound, how does the activation read?
Its activation is inconclusive: 37%.

How did the activation turn out when `Cc1cc2cc(CNC(=O)c3cccc([N+](=O)[O-])c3)ccc2n1C` was run?
Its activation is inactive: 17.5%.

For `CC(NC(=O)c1ccc2c(c1)OCO2)c1cccc(C(F)(F)F)c1` (centres undefined), which activation is on record?
The activation was inconclusive: 62%.

`c1ccc(-c2nc3ccccn3c2NC2CCCC2)nc1` was tested. Which activation did it give?
The activation was inactive: 2.67%.

With `Cc1ccc(OCCCC(=O)NC(C)c2ccccc2)c(C)c1` (centres undefined) as the compound, how does the activation read?
The activation was inconclusive: 71.6%.

Which activation does the source give for `O=C(CC1Sc2ncnn2C1=O)Nc1ccccc1` (centres undefined) here?
Its activation is inactive: -1.83%.

`Cc1ccc(NN2C(=O)C=C(c3ccccc3)C2=O)cc1` was tested. Which activation did it give?
Its activation is inconclusive: 32.4%.

With `O=C(Nc1ccc2ccccc2c1)c1cccc([N+](=O)[O-])c1` as the compound, how does the activation read?
The activation was inconclusive: 54%.

Which activation does the source give for `CCCc1ccc(OCc2ccc(C(=O)N3CCSCC3)o2)cc1` here?
Its activation is inconclusive: 41.6%.

How did the activation turn out when `Cc1ccn(Cc2n[nH]c(=S)n2Cc2ccccc2)n1` was run?
Its activation is inactive: -2.63%.

Which activation does the source give for `Cc1ccc(C(=O)N/N=C2\CCSC2)cc1[N+](=O)[O-]` here?
The activation was inconclusive: 37%.

With `Cc1cccc(N2CCN(C(=O)c3ccc4c(c3)OCCO4)CC2)c1C` as the compound, how does the activation read?
The activation was inconclusive: 47.4%.

Which activation does the source give for `CCn1c(SCC(=O)Nc2nc(-c3ccccc3)cs2)nnc1-c1ccccc1O` here?
The activation was inactive: 2.64%.

`CC(OC(=O)c1ccc(O)cc1)C(=O)Nc1nc(-c2ccccc2)cs1` (centres undefined) was tested. Which activation did it give?
The activation was inconclusive: 37.1%.

With `Oc1oc(-c2ccccc2Br)nc1C=Nc1ccc(Br)cn1` as the compound, how does the activation read?
The activation was inconclusive: 31.6%.

How did the activation turn out when `COc1ccc(S(=O)(=O)N2CCc3cc4c(cc3C2C)OCCCO4)cc1` (centres undefined) was run?
Its activation is inactive: 5.79%.

`CCOc1ccc(/C=C2\SC(=S)N(N3C(=O)C4CC4C3=O)C2=O)cc1` (centres undefined) was tested. Which activation did it give?
Its activation is inactive: -1.08%.

For `CCc1ccc(-c2ccc(SCc3ccccn3)nn2)cc1`, which activation is on record?
The activation was inconclusive: 47.4%.

`O=C(CNC(=O)c1ccc(F)cc1)N/N=C/c1cc(Br)ccc1OC(=O)/C=C/c1ccco1` was tested. Which activation did it give?
Its activation is inactive: -0.401%.

For `Cc1ccc(S(=O)(=O)/C(C#N)=C/c2ccccc2OCc2ccccc2)cc1`, which activation is on record?
The activation was inconclusive: 48.5%.

`O=C(CNCc1cccs1)Nc1ccc(S(=O)(=O)N2CCCCC2)cc1` was tested. Which activation did it give?
Its activation is inconclusive: 42.4%.

`COc1ccc(/C=C2\SC(c3ccc(C)cc3)=NC2=O)cc1OC` was tested. Which activation did it give?
Its activation is inactive: 7.14%.

Which activation does the source give for `O=C(Nc1cccc(Cl)c1)N1CCN(Cc2ccccc2)CC1` here?
Its activation is inconclusive: 45%.

`COc1ccc(Cc2nc(-c3cccc(C)c3)no2)cc1` was tested. Which activation did it give?
Its activation is inconclusive: 34.7%.

`CC(=O)c1cc(-c2ccccc2)n(CCC(=O)NC2CCC(C)CC2)c1C` (centres undefined) was tested. Which activation did it give?
The activation was inconclusive: 40%.

Source: PubChem BioAssay AID540275 (National Center for Advancing Translational Sciences (NCATS), 2011)
